Values from PubChem BioAssay AID652243 (Drosophila RNAi Screening Center, 2013)
Test: 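Fly genes required for human androgen receptor driven transcription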 (primary screen). Cells: Drosophila S2R+ cells. Knock-down reagent: long dsRNA against Drosophila genes. Timing: 72 h (48 h, then 24 h hormone). Treatment: synthetic androgen R1881 at 10 nM for 24 h. Measurement: 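Per-well raw luminescence of the androgen-driven firefly reporter and of the Renilla control, two replicates each, without normalisation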. Direction: firefly reporter light: higher = more light from androgen-responsive reporter; Renilla control light: higher = more constitutive control signal (cell number, transfection). Call rule: 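Hit when the log firefly-to-Renilla ratio dropped or increased by a fixed fold versus the mean of GFP or LacZ controls across duplicate plates; lowering cut given as 1.5 and as 3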. Calls: active = hit: reporter lowered or raised; inactive = no hit.
The deposit covers about 24,000 reagents; below is a random part of those with a known target gene and a result. In the full data, 246 (1%) are marked active. 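Plates not normalised; calls are printed but the firefly/Renilla ratio behind them is not deposited; fold cut for lowering reported inconsistently.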 Raw values are not corrected between plates. Names joined by + are all predicted targets of the reagent. Not given: the amount of reagent.

no.	gene knocked down	amplicon	firefly reporter light, replicate 1	firefly reporter light, replicate 2	Renilla control light, replicate 1	Renilla control light, replicate 2	outcome
1	CG32487 (GeneID 38358)	DRSC21745	5.07e5	5.16e5	1.71e6	2.26e6	inactive
2	CG32487 (GeneID 38358)	DRSC29078	5.06e5	4.76e5	1.59e6	1.51e6	inactive
3	CG11400 (GeneID 36935)	DRSC06070	72325	79543	9.67e5	9.67e5	inactive
4	AIMP3 (GeneID 246507)	DRSC04500	2.21e5	2.11e5	1.47e6	1.40e6	inactive
5	AIMP3 (GeneID 246507)	DRSC26724	3.53e5	3.16e5	7.07e5	8.14e5	inactive
6	TTLL3B (GeneID 33946)	DRSC02133	2.01e5	1.55e5	1.69e6	1.32e6	inactive
7	CG16719 (GeneID 39131)	DRSC10222	8.64e5	5.82e5	8.48e5	1.26e6	inactive
8	CG11634 (GeneID 35434)	DRSC03700	1.75e5	1.99e5	1.26e6	1.48e6	inactive
9	Nelf-A (GeneID 42520)	DRSC15903	1.22e5	1.84e5	8.89e5	9.03e5	inactive
10	Pgam5-2 (GeneID 37899)	DRSC04278	1.83e5	1.65e5	1.25e6	1.24e6	inactive
11	TfIIS (GeneID 34883)	DRSC03455	4.67e5	5.94e5	1.25e6	1.55e6	inactive
12	TfIIS (GeneID 34883)	DRSC24533	1.58e5	2.14e5	7.47e5	5.36e5	inactive
13	toe (GeneID 39418)	DRSC09174	1.22e5	1.34e5	1.35e5	1.37e5	inactive
14	CG34214 (GeneID 5740774)	DRSC04490	6.91e5	4.46e5	9.77e5	7.22e5	inactive
15	CG9962 (GeneID 33448)	DRSC00739	86898	1.07e5	8.00e5	6.55e5	inactive
16	CG9962 (GeneID 33448)	DRSC27772	2.63e5	2.16e5	5.71e5	5.59e5	inactive
17	Ir60b (GeneID 7354400)	DRSC04217	2.54e5	2.78e5	1.84e6	1.65e6	inactive
18	CG34435 (GeneID 31471)	DRSC18086	3.15e5	2.74e5	2.63e6	2.12e6	inactive
19	asRNA:CR43299 + CG8119	DRSC20083	2.26e5	2.37e5	1.97e6	2.12e6	inactive
20	CG2187 (GeneID 43743)	DRSC15425	2.15e5	2.37e5	2.75e6	3.14e6	inactive
21	CG2187 (GeneID 43743)	DRSC25548	6.54e5	5.60e5	6.35e5	6.65e5	inactive
22	CG33483 (GeneID 2768693)	DRSC14019	1.38e6	7.44e5	3.32e6	1.81e6	inactive
23	IFT57 (GeneID 33579)	DRSC00720	66538	77424	7.46e5	5.09e5	inactive
24	EMC6 (GeneID 42992)	DRSC14386	1.79e5	2.10e5	2.24e6	2.77e6	inactive

Reprinted from the listing (3 entries):
no.	gene knocked down	amplicon	firefly reporter light, replicate 1	firefly reporter light, replicate 2	Renilla control light, replicate 1	Renilla control light, replicate 2	outcome
18	CG34435 (GeneID 31471)	DRSC18086	3.15e5	2.74e5	2.63e6	2.12e6	inactive
19	asRNA:CR43299 + CG8119	DRSC20083	2.26e5	2.37e5	1.97e6	2.12e6	inactive
20	CG2187 (GeneID 43743)	DRSC15425	2.15e5	2.37e5	2.75e6	3.14e6	inactive
